Laboratory results: PubChem BioAssay AID2685 (National Center for Advancing Translational Sciences (NCATS), 2010)
The other results are listed elsewhere or left out. Further columns of the screen follow, without active or inactive calls. Most of these compounds were active or inconclusive in the main read-out, so they are no random draw. The note in brackets gives the kind of curve behind each potency; many fits are weak.

Assay: qHTS Assay for Lipid Storage Modulators in Drosophila S3 Cells;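 on cell number change: cells counted by Cell Tracker Red CMTPX staining in the red channel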
Settings: BODIPY lipid droplet fluorescence, 18-24 h; for cell number change: measured here: cell count max response, cells fed with added oleic acid
In short: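 Drosophila S3 cells loaded with oleic acid (400 uM, as added) and compounds at several concentrations; lipid droplets imaged by 488-nm laser-scanning cytometry, 500–530 nm intensity and object ratio to cell channel. Percent activity normalized to 20 uM Triacsin C.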

[1] = measured here: lipid fluorescence (Fed channel) AC50, cells fed with added oleic acid
[2] = measured here: cell number channel AC50, cells fed with added oleic acid

SMILES	cell number change	AC50 [1]	AC50 [2]
Oc1ccc2ccccc2c1CN1CCN(c2ccccc2)CC1	0.899%	0.13 µM [rising, full curve, poor fit]	
COCCOC(=O)c1c(NC(=O)CN2c3ccccc3CC2C)sc(C(N)=O)c1C (stereo not given)	89.9%	1.46 µM [rising, single point]	16.4 µM [rising, partial curve]
COc1ccc(CCNC(=O)CCN2C(=O)COc3ccccc32)cc1OC		0.291 µM [rising, partial curve, poor fit]	
COc1ccnc(Nc2cccc(C)c2)c1C#N	-72%	2.06 µM [falling, partial curve]	23.1 µM [falling, single point]
CC(C)[C@H](NC(=O)c1nn(Cc2ccccc2)c(=O)c2ccccc12)C(=O)O		6.51 µM [rising, partial curve, poor fit]	
CC(O)(C#CCN1CCOCC1)c1ccccc1 (stereo not given)	-26.5%	0.13 µM [falling, full curve, poor fit]	0.0731 µM [falling, full curve, poor fit]
CN(C(=O)COC(=O)COc1ccccc1Cc1ccccc1)c1ccccc1	-33.3%		
COc1ccc2nc(NC(=O)C3CCN(S(=O)(=O)c4cccnc4)CC3)sc2c1	50%	0.366 µM [rising, full curve, poor fit]	0.366 µM [rising, full curve]
COc1ccc(C(=O)/C(C#N)=N/Nc2cccc([N+](=O)[O-])c2)cc1	-54%	0.58 µM [falling, full curve, poor fit]	16.4 µM [falling, single point]
CC(CNC(=O)CCn1c(=O)c2cccn2c2ccc(F)cc21)c1ccccc1 (stereo not given)	-1.98%	8.2 µM [falling, partial curve]	2.91 µM [falling, partial curve, poor fit]
Cc1ccc2c(c1)N(CC(=O)NC1CCCC1)C(=O)C(C)O2 (stereo not given)	47.4%	4.11 µM [rising, partial curve, poor fit]	18.4 µM [rising, single point]
O=[N+]([O-])c1cccnc1N1CCC(c2cc(-c3ccc(Cl)cc3Cl)n[nH]2)CC1	-4.03%		
COc1cc(/C=N/NC2=NC(C)(C)Cc3ccccc32)cc(OC)c1OC	-13.1%		
COc1cc(OC)cc(C(=O)NC2CC(C)(C)NC(C)(C)C2)c1	2.62%		
COc1ccc(C(=O)c2ccc(N(C)C)cc2)c(OC)c1	23.9%		
Cc1cc(OC(C)C(=O)NCC(O)c2ccccc2)c2c(C)c(C)c(=O)oc2c1 (stereo not given)			1.64 µM [falling, partial curve]
COC(=O)c1cc(=O)[nH]c(SCc2cccc(C)c2)n1		4.11 µM [rising, full curve, poor fit]	0.58 µM [rising, full curve]
CC(C)C(=O)NC(NC(=O)C(C)C)c1ccc([N+](=O)[O-])cc1	1.12%	16.4 µM [falling, single point]	
COc1ccc(CN2CCCC(C(=O)N3CCCCC3)C2)cc1 (stereo not given)	51.4%		29.1 µM [rising, single point]
COc1cccc(N2CC(C(=O)Nc3nnc(SCCN4CCOCC4)s3)CC2=O)c1 (stereo not given)	37%	12.6 µM [rising, partial curve, poor fit]	2.82 µM [rising, partial curve, poor fit]

Quoted at random: 5 compounds from above
SMILES	cell number change	AC50 [1]	AC50 [2]
Oc1ccc2ccccc2c1CN1CCN(c2ccccc2)CC1	0.899%	0.13 µM [rising, full curve, poor fit]	
COc1ccnc(Nc2cccc(C)c2)c1C#N	-72%	2.06 µM [falling, partial curve]	23.1 µM [falling, single point]
CC(O)(C#CCN1CCOCC1)c1ccccc1 (stereo not given)	-26.5%	0.13 µM [falling, full curve, poor fit]	0.0731 µM [falling, full curve, poor fit]
COc1ccc(C(=O)/C(C#N)=N/Nc2cccc([N+](=O)[O-])c2)cc1	-54%	0.58 µM [falling, full curve, poor fit]	16.4 µM [falling, single point]
CC(C)[C@H](NC(=O)c1nn(Cc2ccccc2)c(=O)c2ccccc12)C(=O)O		6.51 µM [rising, partial curve, poor fit]	

Following part:

SMILES	cell number change	AC50 [1]	AC50 [2]
Cc1cc2c(cc1C)[n+](C)cn2CC(O)COCc1ccccc1 (stereo not given)	-58.1%	10.3 µM [falling, partial curve, poor fit]	
Cc1ccc(C(=O)Nc2ccc3c(c2)OCO3)cc1Cl	30.5%	6.51 µM [rising, single point]	0.13 µM [rising, full curve, poor fit]
CCOC(=O)Cc1ncccc1C(=O)Nc1ccc(OC)cc1	-1.04%		
Cc1cccc(NS(=O)(=O)c2cccc(C(=O)NCCCN3CCOCC3)c2)c1	66.3%	6.51 µM [falling, partial curve]	29.1 µM [rising, single point]
Cc1cc(S(=O)(=O)N(Cc2ccccc2Cl)c2ccc3c(c2)CCC3)ccc1-n1cnnn1	35.5%		32.6 µM [rising, single point]
O=C(CCC1CCCN(C(=O)c2cccc(F)c2)C1)N1CCN(c2ccccn2)CC1 (stereo not given)	-14.8%	0.13 µM [rising, full curve, poor fit]	
Cc1nn(C)cc1/C=C(/C#N)C(N)=O	-29.1%		
CC(C)C(=O)Nc1ccc(C(=O)Nc2ccc(S(=O)(=O)N3CCOCC3)cc2)cc1	-31.2%	18.4 µM [falling, partial curve]	
COc1ccccc1C/C(N)=N/OC(=O)c1cccs1	-33.8%	0.731 µM [falling, full curve]	0.731 µM [falling, full curve, poor fit]
CC12CCC(=O)N1C(C(=O)N1CCN(S(=O)(=O)c3ccccc3F)CC1)CS2 (stereo not given)	10.3%	16.4 µM [falling, single point]	
O=C1CC(N(Cc2ccc3c(c2)OCO3)C(=O)Nc2ccc(F)cc2)C(=O)N1c1ccccc1 (stereo not given)	0.331%		
O=C(CN1C(=O)NC2(CCCCC2)C1=O)NCc1cccs1	-31.7%	0.0517 µM [falling, full curve, poor fit]	3.66 µM [falling, full curve]
COc1ccc(C(=O)c2coc3ccc(O)cc23)cc1	-36.1%		9.2 µM [falling, partial curve]
Cc1ccc(-n2c3nc(=O)[nH]c(=O)c-3cc3cc([N+](=O)[O-])ccc32)cc1	-24.7%		
Cn1c(=O)c(-c2cc(=O)[nH][nH]2)c(O)c2ccccc21	7.46%	3.26 µM [rising, single point]	
Cc1csc(SCC(=O)c2c(N)n(C)c(=O)n(C)c2=O)n1	-3.23%		4.11 µM [rising, partial curve]
Cc1ccc(C)c(S(=O)(=O)C(C#N)c2nc3ccccc3nc2N2CCOCC2)c1 (stereo not given)	-1.42%		
CN(C)c1ccc(NC(=O)CCCc2ccccc2)cc1	132%	29.1 µM [rising, single point]	29.1 µM [rising, single point]
O=C(CCNNC(=O)c1ccncc1)NCc1ccccc1			0.13 µM [rising, full curve, poor fit]
COc1ccc(CC(=O)N(Cc2ccccc2)c2cccc(C)c2)cc1OC	1.45%		

SMILES	cell number change	AC50 [1]	AC50 [2]
Cn1c(SCC(=O)N2CCOCC2)nnc1-c1ccncc1	5.22%	6.51 µM [falling, single point]	
CCCCCC(=O)Nc1ccc2ccccc2c1	21.3%	2.06 µM [rising, partial curve]	4.61 µM [rising, single point]
O=C(Nc1ccc(-c2nc3cccnc3s2)cc1)c1ccc(Cl)nc1	33.6%		0.116 µM [rising, full curve, poor fit]
Cc1ccc(NC(=O)CSc2ncnc3ccccc23)cc1S(=O)(=O)N1CCCCC1	-6.79%	29.1 µM [falling, partial curve]	
COc1ccc(C(=O)Nc2sc(C)c(-c3ccccc3)c2C#N)cc1OC	26.6%		1.3 µM [rising, full curve, poor fit]
CC(=O)N1c2ccccc2C(CBr)=CC1(C)C	5.68%	0.103 µM [falling, full curve, poor fit]	
Cc1ccc(O)c(NC(=O)CSc2n[nH]c(C)c2[N+](=O)[O-])c1	-22%		0.731 µM [falling, full curve, poor fit]
COc1ccc(C(=O)Cn2nc(CNc3ccc(Br)cc3)[n+]3c2CCCCC3)cc1	-63.5%	29.1 µM [falling, single point]	18.4 µM [falling, single point]
CCOc1ccc2ccccc2c1CNc1nnnn1CC	-42.6%		
CNC(=S)N/N=C/c1cccc(OCc2ccccc2F)c1	0.977%	29.1 µM [rising, single point]	
Cc1c(NC(=S)NC(=O)c2cc3ccccc3o2)c(=O)n(-c2ccccc2)n1C	-6.19%	2.06 µM [rising, partial curve]	
O=C(N/N=C\c1ccc(Cl)s1)C1COc2ccccc2O1 (stereo not given)	29.1%		2.06 µM [rising, full curve, poor fit]
COc1cc(/C=N/n2nnnc2N)ccc1OC(C)=O	-11.1%	2.59 µM [falling, partial curve, poor fit]	
CCN(CC)Cc1cc(CCNC(=O)c2ccc(Cl)cc2)ccc1O	5.35%	6.51 µM [falling, single point]	
CCOc1ncccc1C(=O)NNC(=O)c1csc(N2CCOCC2)n1	3.08%	6.51 µM [rising, partial curve]	0.00461 µM [rising, full curve, poor fit]
CCn1c(COc2ccccc2)nnc1SCC(=O)Nc1cc(OC)ccc1OC		32.6 µM [falling, single point]	
O=[N+]([O-])c1ccc(-c2ccc(/C=N/Nc3nc(NCc4ccccc4)nc(N4CCOCC4)n3)o2)cc1		29.1 µM [falling, single point]	
C=CCNC(=S)Nc1cccc(N)c1	16.6%	6.51 µM [falling, single point]	3.66 µM [falling, partial curve]
